Our source for the binding values is publication doi:10.1101/2021.01.18.426261.

The experiment has as its target T1, TSC1 (rat brain) (rat (endogenous in brain)) (UniProt Q9Z136).
T1 sequence: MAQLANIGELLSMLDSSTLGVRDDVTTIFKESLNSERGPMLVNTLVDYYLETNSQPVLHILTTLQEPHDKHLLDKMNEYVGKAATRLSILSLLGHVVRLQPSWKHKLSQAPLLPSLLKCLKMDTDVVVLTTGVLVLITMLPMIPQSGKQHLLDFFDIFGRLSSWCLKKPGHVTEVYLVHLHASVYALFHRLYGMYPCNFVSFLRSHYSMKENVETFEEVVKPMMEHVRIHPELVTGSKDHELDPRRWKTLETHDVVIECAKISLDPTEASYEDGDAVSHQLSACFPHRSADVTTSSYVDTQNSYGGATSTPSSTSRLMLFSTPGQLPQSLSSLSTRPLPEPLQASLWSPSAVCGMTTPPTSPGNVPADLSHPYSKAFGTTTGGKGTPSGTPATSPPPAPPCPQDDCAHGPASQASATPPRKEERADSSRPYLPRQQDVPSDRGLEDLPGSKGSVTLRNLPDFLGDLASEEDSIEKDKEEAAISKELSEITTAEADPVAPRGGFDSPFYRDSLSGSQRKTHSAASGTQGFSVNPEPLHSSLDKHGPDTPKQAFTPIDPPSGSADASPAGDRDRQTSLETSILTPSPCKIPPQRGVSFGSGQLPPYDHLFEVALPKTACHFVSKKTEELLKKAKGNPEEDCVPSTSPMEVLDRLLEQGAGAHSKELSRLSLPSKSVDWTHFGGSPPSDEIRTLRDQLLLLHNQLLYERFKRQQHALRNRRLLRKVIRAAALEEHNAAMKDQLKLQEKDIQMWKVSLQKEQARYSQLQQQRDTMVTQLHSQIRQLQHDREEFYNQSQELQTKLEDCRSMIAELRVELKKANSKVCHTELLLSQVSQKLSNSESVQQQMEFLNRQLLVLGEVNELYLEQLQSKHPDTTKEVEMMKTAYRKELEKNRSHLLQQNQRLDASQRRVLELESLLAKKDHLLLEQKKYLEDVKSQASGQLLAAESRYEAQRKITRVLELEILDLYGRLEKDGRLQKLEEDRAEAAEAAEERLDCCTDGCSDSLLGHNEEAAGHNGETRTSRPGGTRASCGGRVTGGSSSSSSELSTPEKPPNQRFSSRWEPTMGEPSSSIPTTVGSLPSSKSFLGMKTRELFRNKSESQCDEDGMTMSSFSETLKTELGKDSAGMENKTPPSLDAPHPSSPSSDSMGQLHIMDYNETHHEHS
Description: co-IP.

These are yes or no findings as the source states them, for the method shown. Binding seen in cells or lysates may run through a third protein. Binding can be weak; no strength is given.

Take TBC1D7 (rat brain): the binding result was “binds”.
